The target of this series is T1, Elk1-db (ETS DNA-binding domain) (Homo sapiens) (UniProt P19419).
T1 sequence (looked up): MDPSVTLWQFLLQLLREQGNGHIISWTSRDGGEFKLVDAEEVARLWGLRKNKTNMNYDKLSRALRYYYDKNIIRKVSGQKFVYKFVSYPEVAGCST
Nature of the series: EMSA. The note with it: 10 mM Tris pH 7.5, 50 mM KCl, 1 mM DTT, 1 ug poly(dI-dC), 5% glycerol, 1 mM EDTA, 0.3% BSA, protease inhibitors, 20 fmol probe, 300 ng Elk1-db, 20 min room temperature, recombinant protein, residues 1-96, protein details: 6xHis, label: 3' biotin on both strands. Background: Mobility shift assays separate free from complexed probe on a gel.

Weaker means in comparison with the reference protein, sequence or condition of that experiment. Protein sequences can lack the tags named with them. For at least one entry, the source does not settle the construct or the ends of the probe. At least one verdict was read from the data and is not stated in words by the source.

For the sequence “CGAGGTCGTCCCCGGCACCGGAAGTGACCCTGGCGGGTTTGT (double strand) [KATNA1_UTR1_WT, CpG methylated]”, where the note is “CpG methylated probe, 5-methyl-C at CpG (M.SssI, all CpG, both strands)”, the binding result is “binds more weakly”.

For the sequence “CGGAGAGGACAGCGACAGGAAGGGAGG (double strand) [SPG4_WT_2 (-235/-226), CpG methylated]”, the binding result (CpG methylated probe, same as unmethylated, 5-methyl-C at CpG (M.SssI, all CpG, both strands)) is “binds”.

As for “CGGAGAGGACAGCGACAGGAAGGGAGG (double strand) [SPG4_WT_2 (-235/-226)]”, the binding result is recorded as “binds”.

On to “TACGAAGGCTTCCTGGCAGGAGCTC (double strand) [SPG4_WT_1 (-451/-442), CpG methylated]”, for which the binding result (CpG methylated probe, gel not shown, 5-methyl-C at CpG (M.SssI, all CpG, both strands)) is given as “binds”.

Turning to “TACGAAGGCTTCCTGGCAGGAGCTC (double strand) [SPG4_WT_1 (-451/-442)]”, for the setting “gel not shown”, the binding result is recorded as “binds”.

The values above are taken from article PMC6383945, “Elk1 affects katanin and spastin proteins via differential transcriptional and post-transcriptional regulations”.
